The target in this assay is T1, HA-FLAG tagged Nprl3 (Drosophila) (UniProt Q9VUB4).
T1 sequence: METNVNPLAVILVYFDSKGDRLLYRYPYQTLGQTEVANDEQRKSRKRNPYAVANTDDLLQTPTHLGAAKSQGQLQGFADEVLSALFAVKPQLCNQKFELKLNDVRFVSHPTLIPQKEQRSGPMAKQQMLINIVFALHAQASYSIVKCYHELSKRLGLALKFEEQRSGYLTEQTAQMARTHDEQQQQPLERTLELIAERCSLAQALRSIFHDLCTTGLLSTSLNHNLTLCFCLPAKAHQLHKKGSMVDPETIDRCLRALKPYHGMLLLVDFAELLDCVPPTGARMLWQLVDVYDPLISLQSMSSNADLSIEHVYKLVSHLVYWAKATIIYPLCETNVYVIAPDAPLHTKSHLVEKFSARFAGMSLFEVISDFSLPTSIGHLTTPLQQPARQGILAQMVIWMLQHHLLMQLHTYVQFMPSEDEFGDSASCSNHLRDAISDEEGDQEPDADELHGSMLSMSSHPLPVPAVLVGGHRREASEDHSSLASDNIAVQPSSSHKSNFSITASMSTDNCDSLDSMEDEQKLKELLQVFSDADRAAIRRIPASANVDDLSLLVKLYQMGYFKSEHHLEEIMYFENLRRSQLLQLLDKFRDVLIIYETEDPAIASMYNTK
Description: affinity purification with mass spectrometry; tandem affinity purification of HA-FLAG-Nprl3 from lysates of Drosophila ovaries (MTD-GAL4 driver), control yw ovaries; quantitative mass spectrometry.

Sequences of proteins named here, by UniProt entry; tags and fusion partners are left off.
UniProt Q9W0E3: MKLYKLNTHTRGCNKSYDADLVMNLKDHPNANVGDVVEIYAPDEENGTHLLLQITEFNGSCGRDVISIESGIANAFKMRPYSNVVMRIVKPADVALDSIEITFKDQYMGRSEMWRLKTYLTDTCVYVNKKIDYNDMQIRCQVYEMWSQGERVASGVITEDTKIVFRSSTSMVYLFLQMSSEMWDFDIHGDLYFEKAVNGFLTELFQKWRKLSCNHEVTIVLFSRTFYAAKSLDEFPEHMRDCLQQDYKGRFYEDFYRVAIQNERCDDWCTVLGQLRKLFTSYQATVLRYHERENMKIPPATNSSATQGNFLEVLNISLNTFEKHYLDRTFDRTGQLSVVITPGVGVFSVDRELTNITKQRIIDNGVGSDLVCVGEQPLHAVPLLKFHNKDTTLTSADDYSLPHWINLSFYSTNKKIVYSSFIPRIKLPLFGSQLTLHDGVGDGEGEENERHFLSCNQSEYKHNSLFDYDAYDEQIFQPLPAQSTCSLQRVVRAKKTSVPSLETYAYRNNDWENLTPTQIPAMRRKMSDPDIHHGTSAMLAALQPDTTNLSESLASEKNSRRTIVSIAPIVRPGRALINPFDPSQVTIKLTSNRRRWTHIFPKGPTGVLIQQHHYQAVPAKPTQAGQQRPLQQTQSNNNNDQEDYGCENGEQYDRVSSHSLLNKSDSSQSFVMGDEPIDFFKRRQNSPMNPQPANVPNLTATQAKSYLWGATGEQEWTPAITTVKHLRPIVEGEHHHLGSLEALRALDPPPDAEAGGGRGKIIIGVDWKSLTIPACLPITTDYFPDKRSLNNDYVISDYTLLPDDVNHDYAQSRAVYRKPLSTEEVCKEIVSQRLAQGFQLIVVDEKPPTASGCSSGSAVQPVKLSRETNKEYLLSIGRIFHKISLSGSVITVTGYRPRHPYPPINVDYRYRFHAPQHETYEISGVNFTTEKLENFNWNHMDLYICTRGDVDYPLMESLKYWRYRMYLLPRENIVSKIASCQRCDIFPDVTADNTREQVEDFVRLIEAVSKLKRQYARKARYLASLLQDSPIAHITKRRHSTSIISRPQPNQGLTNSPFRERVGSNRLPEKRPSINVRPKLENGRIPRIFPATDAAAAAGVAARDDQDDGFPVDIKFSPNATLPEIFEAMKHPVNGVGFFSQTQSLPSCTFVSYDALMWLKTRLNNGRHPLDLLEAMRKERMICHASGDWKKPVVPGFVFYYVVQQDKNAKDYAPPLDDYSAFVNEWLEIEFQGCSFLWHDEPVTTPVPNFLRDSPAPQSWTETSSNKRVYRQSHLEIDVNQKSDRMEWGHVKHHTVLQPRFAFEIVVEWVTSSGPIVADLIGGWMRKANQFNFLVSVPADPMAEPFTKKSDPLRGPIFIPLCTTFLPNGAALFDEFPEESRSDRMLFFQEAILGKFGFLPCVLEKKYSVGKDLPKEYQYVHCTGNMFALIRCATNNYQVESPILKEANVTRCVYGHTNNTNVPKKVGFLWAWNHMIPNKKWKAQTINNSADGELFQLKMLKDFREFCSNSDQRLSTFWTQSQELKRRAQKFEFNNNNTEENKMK

These are yes or no findings as the source states them, for the method shown. Binding seen in cells or lysates may run through a third protein. These calls come from enrichment with a bait or labelling near it, and not all partners need be listed. Tags and fused reporters may be left off the sequences shown.

Iml1 (from UniProt Q9W0E3 1-1544): the binding result is reported as “binds”.

B1: Seh1 (protein, UniProt Q7K2X8 1-354)
chain: MFDVEPIIADHKDVIHDVVFDYYGRRMATCSSDQTVKIWDEDGQGKWNVTSSWKAHSGSIWRVSWAHPEFGQVVATCSFDRTASVWEEVIGEKVSSTNTPTRRWVRRTTLVDSRTSVTDVEFAPKYLGLLLATASADGIIRIYEAPDIMNLSQWPVQHEISNKLPLSCLSWNTSTYMVTQLLAAGSDEAATPTGKVFLFAYSENSRKCVKIDTVNDITDPVTDVAFAPNAGRTFHMLAVASKDLYIVNLRGVTDATDISKLDIQTIKFSEHNCPVWRVCWNMLATMLISTGDDGCVRLWRMNYNRQWRCAAVLKAEGSGPTYEPAPPTPTLATTASATAKFYKKGTIGNQVPWH
Take B1: the binding entry is reported as “binds”.

B2: Mio (protein, UniProt Q9VQ89 1-867)
chain: MSGNTHGLSWFPHFPDKFVSWGQEIHLYEVRRKDDHSQKSRLPYISVNYLANESRYQYARCVAASYHSDQPIIAVGLADGKVGICNFRDTYDSSWEYTPRQQRMCTCLAWNELDANILAIGHDRHRNDTCITIWDIERGVPKETANFFGVGESANSICWDRNHRTVIAGMSQKMIKLFDLRQSNATCQSIQTKTVQGLSVSPNGNYLCSYVDSVITLWDPRNIKSPLRQIQSSKNHLQIAWCPTRTSLLSSLQRDSSYITLYDIRSVDTDNSGEIYHVKRQISPFPARYQHSGKFSFVNCLSWHSRDFERALLLADALNILDFRLPATLHTAHSNRRKLPLLMQRPLYTPASPTSTAATPTQQQPTSSCSTNSGSSLDFSTPGGSPFNVDLLKPELFELDLVDETRQRALEDYGIKPDNKRFGELHLTPYLRNVWSTLNNVYSEDRLTGLKATLGINLGHTSEALMASSRIESQVLQWPEGINNSNKLICYRSEQRDLALQLCGWAFEQELDRFIDQLYANKEYSRAAMICVFHLKIFHACNILSSAADNMRDPSMYRITVIALSSFNADRCSSTWRNQRSSANMQIHDPHLRAVFSFLTMEKDNFDAVLKEEGVSLSDRMAFACKYLSETKLADYVAQQIQAAIDGGDLNGLLLTGESQDGIDILQSYMDTSFDVQTVALVAINYFRQELFEDKRIQYWIASYLDHLNSWGLWEKRAELDIKIESIRPSSRSSRTVFLSCNFCGKSVSNALLDEPRPRSTTTSTNRLSSCPSCRKPLPRCSLCLMHMGTMVNMSNGETPTTTPDVPGWQTKPFSKWFSWCQTCRHGGHTEHIMQWFKQNSECPVSSCNCRCFDMDGTKPNTLRDIS
For B2, the binding entry was “binds”.

B3: FK506 binding protein 39 KD (FKBP39) (protein, UniProt P54397 1-357)
chain: MSMFWGLNMKPERKYSQTIIKSFHISGVALDKGQEAKLYLAAEKQEYIVATVTKAIPQVALDLNFSKGDRIMFYTAGDASVSLLGYLHDIDSEDDEDDDQMTIENLLNSKAIKNSKKSEDDEDENESGEEDEEDTDDDSQIIEEYESFLENGEEEDDDDVDEDNEESGEEDEQDSDDSEAEEEQPKAKVAKLSPGASAKKSGKEQNGVAKKEEAKQQQKKKEKPEAKKEQPKAKEPAKQQPASKDPRTITGGVKIVDQVVGKGEEAKQGKRVSVYYIGRLQSNNKTFDSLLKGKPFKFALGGGEVIKGWDVGVAGMKVGGKRVITCPPHMAYGARGAPPKIGPNSTLVFEVELKAVH
On to B3, for which the binding result was “binds”.
